Measured values: patent US20100291561
For at least one entry, the source does not settle the construct or the ends of the probe. A negative result means that nothing was seen under these conditions.

By UniProt entry, the sequences of proteins in these tests, tags left out. Residues count along the entry.
UniProt P02769, 25-607: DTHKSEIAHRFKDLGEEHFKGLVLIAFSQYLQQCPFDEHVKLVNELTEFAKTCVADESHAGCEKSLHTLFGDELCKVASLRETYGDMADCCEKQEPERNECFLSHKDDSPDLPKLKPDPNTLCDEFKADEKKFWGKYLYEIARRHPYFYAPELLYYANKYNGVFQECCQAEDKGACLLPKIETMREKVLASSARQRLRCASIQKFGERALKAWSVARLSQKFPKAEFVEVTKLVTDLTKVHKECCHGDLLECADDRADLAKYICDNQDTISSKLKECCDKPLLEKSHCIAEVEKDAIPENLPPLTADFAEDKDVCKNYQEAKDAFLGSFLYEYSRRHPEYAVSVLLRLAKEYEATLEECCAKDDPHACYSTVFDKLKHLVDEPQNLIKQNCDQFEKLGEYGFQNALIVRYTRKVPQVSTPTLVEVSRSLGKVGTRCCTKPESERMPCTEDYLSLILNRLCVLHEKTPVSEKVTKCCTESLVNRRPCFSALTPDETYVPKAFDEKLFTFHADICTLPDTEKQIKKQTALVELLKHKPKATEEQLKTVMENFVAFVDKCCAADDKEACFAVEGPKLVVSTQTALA
UniProt P04390, 2-245: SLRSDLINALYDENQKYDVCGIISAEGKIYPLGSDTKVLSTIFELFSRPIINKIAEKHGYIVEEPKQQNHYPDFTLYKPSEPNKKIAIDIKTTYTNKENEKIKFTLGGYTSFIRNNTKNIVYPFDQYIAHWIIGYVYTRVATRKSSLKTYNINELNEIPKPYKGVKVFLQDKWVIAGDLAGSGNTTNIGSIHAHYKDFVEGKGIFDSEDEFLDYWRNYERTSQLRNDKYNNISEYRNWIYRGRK

Key:
[1] = target: bovine serum albumin (BSA) (Bos taurus) (UniProt P02769); experiment: EMSA; settings: selectivity control, 1x NEBuffer 1, room temperature; purified native protein; protein details: New England Biolabs; single-stranded DNA
[2] = target: EcoRV restriction endonuclease (UniProt P04390); experiment: EMSA; settings: selectivity control, 1x NEBuffer 1, room temperature; purified recombinant protein; protein details: New England Biolabs; single-stranded DNA

CAAGGCCTCTCCTGATCCGACGAGCAAGTAGCTCCAAGACGAGTTCAACCCCAGAATCAGGTCGGGAGCTGAAGCTGCTT [aptamer 3 (full length, asymmetric PCR product)]
binding result [1]: no binding | binding result [2]: no binding
